This continues a long series; more values of the same kind are listed elsewhere.
How the values were obtained:
Type in all cases: cell-based
[1] = target: T1, RNA polymerase II (Mus musculus) (UniProt P08775+Q8CFI7+P97760+A0A3Q4L2S8+Q80UW8+P61219+P62488+Q923G2+P60898+O08740+Q63871+P62876); assay: Inhibition of RNA polymerase II in mouse B16-F1 migrating cells assessed as fold change in Nxt2-RNA stability at 0.1 mM measured by ChIP-seq analysis relative to control cells
[2] = target: T1, RNA polymerase II (Mus musculus); assay: Inhibition of RNA polymerase II in mouse B16-F1 migrating cells assessed as fold change in Tpi1-RNA stability at 0.1 mM measured by ChIP-seq analysis relative to control cells
[3] = target: T1, RNA polymerase II (Mus musculus); assay: Inhibition of RNA polymerase II in mouse B16-F1 migrating cells assessed as fold change in Rbm27-RNA stability at 0.1 mM measured by ChIP-seq analysis relative to control cells
[4] = target: T1, RNA polymerase II (Mus musculus); assay: Inhibition of RNA polymerase II in mouse B16-F1 migrating cells assessed as fold change in Fanca-RNA stability at 0.1 mM measured by ChIP-seq analysis relative to control cells
[5] = target: T1, RNA polymerase II (Mus musculus); assay: Inhibition of RNA polymerase II in mouse B16-F1 migrating cells assessed as fold change in Azi2-RNA stability at 0.1 mM measured by ChIP-seq analysis relative to control cells
[6] = target: T1, RNA polymerase II (Mus musculus); assay: Inhibition of RNA polymerase II in mouse B16-F1 migrating cells assessed as fold change in Zbtb18-RNA stability at 0.1 mM measured by ChIP-seq analysis relative to control cells
[7] = target: T1, RNA polymerase II (Mus musculus); assay: Inhibition of RNA polymerase II in mouse B16-F1 migrating cells assessed as fold change in Ccp110-RNA stability at 0.1 mM measured by ChIP-seq analysis relative to control cells
[8] = target: T1, RNA polymerase II (Mus musculus); assay: Inhibition of RNA polymerase II in mouse B16-F1 migrating cells assessed as fold change in Dek-RNA stability at 0.1 mM measured by ChIP-seq analysis relative to control cells
[9] = target: T1, RNA polymerase II (Mus musculus); assay: Inhibition of RNA polymerase II in mouse B16-F1 migrating cells assessed as fold change in Ndufb7-RNA stability at 0.1 mM measured by ChIP-seq analysis relative to control cells
[10] = target: T1, RNA polymerase II (Mus musculus); assay: Inhibition of RNA polymerase II in mouse B16-F1 migrating cells assessed as fold change in Timm21-RNA stability at 0.1 mM measured by ChIP-seq analysis relative to control cells
[11] = target: T1, RNA polymerase II (Mus musculus); assay: Inhibition of RNA polymerase II in mouse B16-F1 migrating cells assessed as fold change in Chmp6-RNA stability at 0.1 mM measured by ChIP-seq analysis relative to control cells
[12] = target: T1, RNA polymerase II (Mus musculus); assay: Inhibition of RNA polymerase II in mouse B16-F1 migrating cells assessed as fold change in Cyb561d2-RNA stability at 0.1 mM measured by ChIP-seq analysis relative to control cells
[13] = target: T1, RNA polymerase II (Mus musculus); assay: Inhibition of RNA polymerase II in mouse B16-F1 migrating cells assessed as fold change in Tcea1-RNA stability at 0.1 mM measured by ChIP-seq analysis relative to control cells
[14] = target: T1, RNA polymerase II (Mus musculus); assay: Inhibition of RNA polymerase II in mouse B16-F1 migrating cells assessed as fold change in Zfp148-RNA stability at 0.1 mM measured by ChIP-seq analysis relative to control cells
[15] = target: T1, RNA polymerase II (Mus musculus); assay: Inhibition of RNA polymerase II in mouse B16-F1 migrating cells assessed as fold change in Tmed7-RNA stability at 0.1 mM measured by ChIP-seq analysis relative to control cells
[16] = target: T1, RNA polymerase II (Mus musculus); assay: Inhibition of RNA polymerase II in mouse B16-F1 migrating cells assessed as fold change in Utp15-RNA stability at 0.1 mM measured by ChIP-seq analysis relative to control cells
[17] = target: T1, RNA polymerase II (Mus musculus); assay: Inhibition of RNA polymerase II in mouse B16-F1 migrating cells assessed as fold change in Erap1-RNA stability at 0.1 mM measured by ChIP-seq analysis relative to control cells
[18] = target: T1, RNA polymerase II (Mus musculus); assay: Inhibition of RNA polymerase II in mouse B16-F1 migrating cells assessed as fold change in Pvr-RNA stability at 0.1 mM measured by ChIP-seq analysis relative to control cells
[19] = target: Histone-lysine N-methyltransferase EZH2 (Mus musculus) (UniProt Q61188); assay: Inhibition of EZH2 in mouse B16-F1 migrating cells assessed as fold change in H3K27me3-independent regulated Fosb-mRNA expression at 3 uM measured by ChIP-seq analysis relative to control cells
[20] = target: Histone-lysine N-methyltransferase EZH2 (Mus musculus) (UniProt Q61188); assay: Inhibition of EZH2 in mouse B16-F1 migrating cells assessed as fold change in H3K27me3-buffered regulated Zfp638-mRNA expression at 3 uM measured by ChIP-seq analysis relative to control cells
[21] = target: Histone-lysine N-methyltransferase EZH2 (Mus musculus) (UniProt Q61188); assay: Inhibition of EZH2 in mouse B16-F1 migrating cells assessed as fold change in H3K27me3-independent regulated Ahnak2-mRNA expression at 3 uM measured by ChIP-seq analysis relative to control cells
[22] = target: Histone-lysine N-methyltransferase EZH2 (Mus musculus) (UniProt Q61188); assay: Inhibition of EZH2 in mouse B16-F1 migrating cells assessed as fold change in H3K27me3-dependent regulated 5430430B14Rik-mRNA expression at 3 uM measured by ChIP-seq analysis relative to control cells
[23] = target: Histone-lysine N-methyltransferase EZH2 (Mus musculus) (UniProt Q61188); assay: Inhibition of EZH2 in mouse B16-F1 migrating cells assessed as fold change in H3K27me3-buffered regulated Cnnm1-mRNA expression at 3 uM measured by ChIP-seq analysis relative to control cells
[24] = target: Histone-lysine N-methyltransferase EZH2 (Mus musculus) (UniProt Q61188); assay: Inhibition of EZH2 in mouse B16-F1 migrating cells assessed as fold change in H3K27me3-dependent regulated Klf4-mRNA expression at 3 uM measured by ChIP-seq analysis relative to control cells
[25] = target: Histone-lysine N-methyltransferase EZH2 (Mus musculus) (UniProt Q61188); assay: Inhibition of EZH2 in mouse B16-F1 migrating cells assessed as fold change in H3K27me3-independent regulated Tppp3-mRNA expression at 3 uM measured by ChIP-seq analysis relative to control cells
[26] = target: Histone-lysine N-methyltransferase EZH2 (Mus musculus) (UniProt Q61188); assay: Inhibition of EZH2 in mouse B16-F1 migrating cells assessed as fold change in H3K27me3-buffered regulated Por-mRNA expression at 3 uM measured by ChIP-seq analysis relative to control cells
[27] = target: Histone-lysine N-methyltransferase EZH2 (Mus musculus) (UniProt Q61188); assay: Inhibition of EZH2 in mouse B16-F1 migrating cells assessed as fold change in H3K27me3-buffered regulated Ankrd10-mRNA expression at 3 uM measured by ChIP-seq analysis relative to control cells
[28] = target: Histone-lysine N-methyltransferase EZH2 (Mus musculus) (UniProt Q61188); assay: Inhibition of EZH2 in mouse B16-F1 migrating cells assessed as fold change in H3K27me3-buffered regulated Tex9-mRNA expression at 3 uM measured by ChIP-seq analysis relative to control cells
[29] = target: Histone-lysine N-methyltransferase EZH2 (Mus musculus) (UniProt Q61188); assay: Inhibition of EZH2 in mouse B16-F1 migrating cells assessed as fold change in H3K27me3-buffered regulated Pgbd5-mRNA expression at 3 uM measured by ChIP-seq analysis relative to control cells
[30] = target: Histone-lysine N-methyltransferase EZH2 (Mus musculus) (UniProt Q61188); assay: Inhibition of EZH2 in mouse B16-F1 migrating cells assessed as fold change in H3K27me3-dependent regulated Tnfaip8l1-mRNA expression at 3 uM measured by ChIP-seq analysis relative to control cells

The chains behind the UniProt entries cited, without tags or fusion partners.
UniProt Q61188, whole entry: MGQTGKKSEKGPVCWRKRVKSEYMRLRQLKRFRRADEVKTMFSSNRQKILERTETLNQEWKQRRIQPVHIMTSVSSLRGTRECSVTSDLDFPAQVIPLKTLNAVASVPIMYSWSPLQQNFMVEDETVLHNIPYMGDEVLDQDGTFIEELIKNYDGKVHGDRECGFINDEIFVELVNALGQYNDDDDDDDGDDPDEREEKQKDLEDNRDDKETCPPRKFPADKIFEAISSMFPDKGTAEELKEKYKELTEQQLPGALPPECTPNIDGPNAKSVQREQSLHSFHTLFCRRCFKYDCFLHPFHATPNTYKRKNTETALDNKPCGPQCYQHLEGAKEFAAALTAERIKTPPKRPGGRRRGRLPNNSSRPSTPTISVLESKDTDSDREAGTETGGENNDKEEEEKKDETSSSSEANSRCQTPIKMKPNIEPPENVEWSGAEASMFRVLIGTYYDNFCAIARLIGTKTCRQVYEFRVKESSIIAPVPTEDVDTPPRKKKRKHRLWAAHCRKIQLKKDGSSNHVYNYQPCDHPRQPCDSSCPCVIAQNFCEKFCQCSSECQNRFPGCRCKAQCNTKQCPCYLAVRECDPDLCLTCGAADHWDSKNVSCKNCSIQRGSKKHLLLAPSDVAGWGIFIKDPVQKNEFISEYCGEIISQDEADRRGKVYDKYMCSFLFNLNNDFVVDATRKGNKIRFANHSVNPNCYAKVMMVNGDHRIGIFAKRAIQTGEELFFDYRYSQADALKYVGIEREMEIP

Structure (SMILES): OC[C@H]1O[C@@H](n2cnc3cc(Cl)c(Cl)cc32)[C@H](O)[C@@H]1O
- log2FC [1]: -0.81
- log2FC [2]: 0.8
- log2FC [3]: -0.69
- log2FC [4]: -0.48
- log2FC [5]: -0.46
- log2FC [6]: -0.61
- log2FC [7]: -0.58
- log2FC [8]: -1.11
- log2FC [9]: 0.6
- log2FC [10]: -0.57
- log2FC [11]: 0.39
- log2FC [12]: 0.45
- log2FC [13]: -0.54
- log2FC [14]: -0.6
- log2FC [15]: -0.5
- log2FC [16]: -0.61
- log2FC [17]: -0.64
- log2FC [18]: 0.54

Structure (SMILES): CCCc1cc(C)[nH]c(=O)c1CNC(=O)c1cc(-c2ccnc(N3CCN(C)CC3)c2)cc2c1cnn2C(C)C
- log2FC [19]: 1.63
- log2FC [20]: -0.42
- log2FC [21]: 0.56
- log2FC [22]: 0.64
- log2FC [23]: 0.43
- log2FC [24]: 0.23
- log2FC [25]: 1.57
- log2FC [26]: 0.46
- log2FC [27]: -0.57
- log2FC [28]: -0.45
- log2FC [29]: 0.7
- log2FC [30]: -0.41
